In paper PMC8259210:
Results are given in words; binding and its absence hold for the method and conditions named. Binding seen in cells or lysates may run through a third protein. Some binding calls cover weakened binding; strength is not graded here.

Chains of the proteins cited; added tags and fusions are not shown.
UniProt P43268: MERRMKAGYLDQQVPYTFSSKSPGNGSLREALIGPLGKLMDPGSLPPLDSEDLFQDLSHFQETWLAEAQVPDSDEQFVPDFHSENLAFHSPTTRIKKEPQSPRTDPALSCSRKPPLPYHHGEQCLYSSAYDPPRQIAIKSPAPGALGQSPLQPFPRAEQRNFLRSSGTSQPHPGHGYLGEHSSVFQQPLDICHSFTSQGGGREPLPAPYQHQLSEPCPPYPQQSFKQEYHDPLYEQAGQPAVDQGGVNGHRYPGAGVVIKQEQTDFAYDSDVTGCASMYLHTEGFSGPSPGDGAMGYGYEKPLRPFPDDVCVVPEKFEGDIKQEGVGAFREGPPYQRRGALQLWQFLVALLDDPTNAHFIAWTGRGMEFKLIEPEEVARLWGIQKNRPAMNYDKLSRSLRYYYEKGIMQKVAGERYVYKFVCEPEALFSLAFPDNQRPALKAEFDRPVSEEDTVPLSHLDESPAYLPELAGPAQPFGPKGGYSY
UniProt P05412: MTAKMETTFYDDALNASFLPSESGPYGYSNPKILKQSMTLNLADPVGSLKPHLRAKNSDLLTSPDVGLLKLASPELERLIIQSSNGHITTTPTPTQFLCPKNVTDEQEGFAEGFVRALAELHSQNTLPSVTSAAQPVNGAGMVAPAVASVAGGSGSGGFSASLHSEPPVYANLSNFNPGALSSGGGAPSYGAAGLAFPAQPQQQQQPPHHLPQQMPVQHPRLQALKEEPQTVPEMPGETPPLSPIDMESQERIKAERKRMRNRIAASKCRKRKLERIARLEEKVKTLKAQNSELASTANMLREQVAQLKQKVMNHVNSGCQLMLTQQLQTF

Molecular target: Polyoma enhancer activator 3 (PEA3) (human (endogenous in WI-38)) (UniProt P43268)
Experiment: co-IP; WI-38 cells exposed to hypoxia (1% O2) for 30 min, lysed in IP lysis buffer; supernatant immunoprecipitated with antibody against PEA3 or c-Jun with protein A/G beads at 4 °C overnight; immunoblot for PEA3 or c-Jun

- binding: binds
Substance: c-Jun (from UniProt P05412 1-331)
